Results taken from article PMC12040169 (PLOS Biology, 2025).
Some of the results follow.

system: T1, CTL2-GFP (C. trachomatis L2/434/Bu, GFP-expressing); set-up: species or system HeLa; Intracellular C. trachomatis growth in HeLa cells, bulk GFP fluorescence relative to DMSO; conditions: bulk GFP, single well; 28.5 h, 10 µM; inhibitor
T1 construct: L2/434/Bu, GFP-expressing

SMILES | % of control remaining
COc1ccc2c(c1)C(NC(=O)C1CCCN(C)C1)CC(C)(C)O2 (stereo not drawn) [CBK307631] | 100.734%
CC(C)CNc1nc(-c2cc(C(F)(F)F)cc(C(F)(F)F)c2)cnc1N [CBK063708] | 128.114%
CC1CCCC(C)N1C(=O)C1CCCCC1C(=O)O (stereo not drawn) [CBK026624] | 118.216%
COc1ccc(-c2cc(CC3(NC(C)=O)COC3)no2)cc1 [CBK289428] | 116.118%
CC(C)Cn1cncc1CN1C(=O)CC2(CCCC2)CC1=O [CBK306600] | 119.417%
Cc1cc(C(=O)NCCCC2CCOC2)c2cccc(Cl)c2n1 (stereo not drawn) [CBK282550] | 81.2142%
CC(C)(C)OC(=O)N1CCC(CNS(=O)(=O)c2cc(Cl)sc2Cl)CC1 [CBK086018] | 122.457%
CCC(C(=O)NCCCN1CCOCC1)c1ccccc1 (stereo not drawn) [CBK265103] | 154.045%
CCCC(=O)Nc1nc(-c2ccc(C)cc2)c(C)s1 [CBK287763] | 92.5308%
Cc1cc2c(cc3c(=O)n(CC(=O)NC4CC4)nc(C)n32)s1 [CBK284067] | 151.963%
O=C(COC(=O)C1CCN(S(=O)(=O)c2cccc3cccnc23)CC1)c1ccc([N+](=O)[O-])cc1 [CBK264412] | 119.662%
O=C(O)c1cc(S(=O)(=O)Nc2ccc3nc(N4CCCC4)sc3c2)ccc1Br [CBK296710] | 101.037%
O=C1CC(SCCc2nc3ccccc3[nH]2)C(=O)N1c1cccc(F)c1 (stereo not drawn) [CBK266671] | 158.445%
COc1ccc(-c2[nH]c3ncccc3c2CN2CCSCC2)cc1 [CBK285338] | 122.927%
Cc1cccc(-c2ncc(C(=O)Nc3nccs3)cc2-c2ccco2)c1 [CBK037427] | 134.484%
COC(=O)c1ccccc1Oc1nc(OC)cc(OC)n1 [CBK092217] | 107.862%
CC(=O)Nc1ccc(S(=O)(=O)N2CCN(c3ccc(C(F)(F)F)cc3[N+](=O)[O-])CC2)cc1 [CBK264293] | 114.548%
Cc1ccc(NC(=O)C(=O)NCCCN2CCOCC2)cc1C [CBK264836] | 112.031%
CC(=O)Nc1cccc(NC(=O)N2CCCCC2CO)c1 (stereo not drawn) [CBK156181] | 112.057%
COc1cc(OC)nc(C(NC(=O)C2CCN(C(=O)c3ccno3)CC2)c2ccc(Cl)cc2)n1 (stereo not drawn) [CBK060169] | 98.3441%
Cc1cc(OCC(=O)N2CCC(C(=O)Nc3ccccc3)CC2)no1 [CBK305067] | 174.454%
c1nc(Nc2ccc3[nH]ccc3c2)cc(-c2ccc(N3CCOCC3)cc2)n1 [CBK090851] | 111.747%
O=C(Nc1cccc(N2CCNCC2)c1)c1ccccc1 [CBK028255T] | 139.713%
CCCCNC(=O)Nc1ncc(-c2ccc(C#N)cc2)nc1-c1ccc(C(=O)N2CCOCC2)cc1 [CBK105766] | 83.3024%
CCc1noc(C)c1C(=O)N1CCN(C(C#N)C2CCCCC2)CC1 (stereo not drawn) [CBK304916] | 142.696%
O=C(O)CCCC(=O)Nc1ccccc1-c1ccccc1 [CBK231405] | 136.464%

SMILES | % of control remaining
Clc1nccnc1NCCOc1ccccc1 [CBK113564] | 101.379%
O=C(NCCN1CCOCC1)c1cc(-c2ccc(F)cc2)nc2ccc(Br)cc12 [CBK294450] | 141.983%
O=C(Cc1cc(F)c(F)c(F)c1)Nc1cnccn1 [CBK161764] | 115.441%
O=C(Nc1ccc(C(=O)OCC(=O)c2cccc3ccccc23)cc1)c1ccccc1 [CBK265518] | 87.3027%
O=[N+]([O-])c1cc(S(=O)(=O)Nc2ccc(C(O)(C(F)(F)F)C(F)(F)F)cc2)ccc1Cl [CBK062106] | 109.969%
O=C(Nc1nc2ccccc2s1)c1cccnc1Cl [CBK071983] | 95.6294%
COc1ccc(Cl)c(NC(=O)NCCN2CCN(c3ccccc3)CC2)c1 [CBK268899] | 132.473%
CC(C)c1nnc(CCC(=O)N2CCC(c3ccccc3)C2)o1 (stereo not drawn) [CBK281925] | 151.149%
Cn1cc(CCC(=O)N2CCc3[nH]c4ccc(Cl)cc4c3C2)cn1 [CBK304636] | 153.57%
O=C(O)c1sc2cc(C(F)(F)F)cnc2c1-c1cccs1 [CBK089890] | 58.4041%
COc1ccc(CCN2CCN(c3nccnc3OCc3cc(C)on3)CC2)cc1OC [CBK084207] | 86.2367%
COc1cc(CN2CCc3c([nH]c4ccccc34)C2)c([N+](=O)[O-])cc1OC [CBK261588] | 100%
O=C(Nc1ccc2[nH]ccc2c1)c1c(F)ccc(Cl)c1F [CBK159673] | 94.8885%
Cc1cc(NS(=O)(=O)c2ccc(Cl)c(Cl)c2)n(C)n1 [CBK067254] | 134.737%
OC1CCC(Nc2cncc(-c3cccc(Cl)c3)n2)CC1 (stereo not drawn) [CBK066031] | 119.696%
O=C(O)CSc1cccc2cccnc12 [CBK126918] | 178.927%
CCN(CC)C(=O)c1sc2nc(-c3cccs3)nc(C)c2c1N [CBK115366] | 84.9115%
COc1ccc(-c2cncc(N3CCN(C)CC3)n2)cc1 [CBK065378] | 137.434%
CCOC(=O)C(CNC(=O)c1c(CC)noc1C)Cc1ccccc1 (stereo not drawn) [CBK305961] | 124.532%
CS(=O)(=O)Nc1cccc(-c2nnn[nH]2)c1 [CBK062150] | 189.522%
CCc1c(C)sc(NC(=O)C2C3C=CC(C3)C2C(=O)O)c1C(N)=O (stereo not drawn) [CBK265433] | 121.449%
O=C(CSc1nnc(-c2ccncc2)n1-c1ccccc1)N/N=C/c1ccco1 [CBK262828] | 100%
O=C(NCCn1cncn1)C1(c2ccccc2F)CC1 [CBK283087] | 108.489%
FC(F)(F)c1cccc(OCCN2CCOCC2)n1 [CBK113289] | 58.8853%
COC(=O)[C@@H]1CN(C(=O)c2ccc(OC)cc2)CCN1C(C)=O [CBK289578] | 134.638%

Sorted by molecular weight (ascending): 12 of the compounds above
SMILES | % of control remaining
CS(=O)(=O)Nc1cccc(-c2nnn[nH]2)c1 [CBK062150] | 189.522%
Clc1nccnc1NCCOc1ccccc1 [CBK113564] | 101.379%
O=C(NCCn1cncn1)C1(c2ccccc2F)CC1 [CBK283087] | 108.489%
COc1ccc(-c2cncc(N3CCN(C)CC3)n2)cc1 [CBK065378] | 137.434%
O=C(Nc1ccc2[nH]ccc2c1)c1c(F)ccc(Cl)c1F [CBK159673] | 94.8885%
O=C(O)c1sc2cc(C(F)(F)F)cnc2c1-c1cccs1 [CBK089890] | 58.4041%
Cn1cc(CCC(=O)N2CCc3[nH]c4ccc(Cl)cc4c3C2)cn1 [CBK304636] | 153.57%
CCc1c(C)sc(NC(=O)C2C3C=CC(C3)C2C(=O)O)c1C(N)=O (stereo not drawn) [CBK265433] | 121.449%
O=C(CSc1nnc(-c2ccncc2)n1-c1ccccc1)N/N=C/c1ccco1 [CBK262828] | 100%
O=C(Nc1ccc(C(=O)OCC(=O)c2cccc3ccccc23)cc1)c1ccccc1 [CBK265518] | 87.3027%
COc1ccc(CCN2CCN(c3nccnc3OCc3cc(C)on3)CC2)cc1OC [CBK084207] | 86.2367%
O=C(NCCN1CCOCC1)c1cc(-c2ccc(F)cc2)nc2ccc(Br)cc12 [CBK294450] | 141.983%
